3 substances from doi:10.1101/2022.10.14.512051 can be followed below.

Amino acid sequences for entries named in this document (tags omitted).
UniProt Q13620: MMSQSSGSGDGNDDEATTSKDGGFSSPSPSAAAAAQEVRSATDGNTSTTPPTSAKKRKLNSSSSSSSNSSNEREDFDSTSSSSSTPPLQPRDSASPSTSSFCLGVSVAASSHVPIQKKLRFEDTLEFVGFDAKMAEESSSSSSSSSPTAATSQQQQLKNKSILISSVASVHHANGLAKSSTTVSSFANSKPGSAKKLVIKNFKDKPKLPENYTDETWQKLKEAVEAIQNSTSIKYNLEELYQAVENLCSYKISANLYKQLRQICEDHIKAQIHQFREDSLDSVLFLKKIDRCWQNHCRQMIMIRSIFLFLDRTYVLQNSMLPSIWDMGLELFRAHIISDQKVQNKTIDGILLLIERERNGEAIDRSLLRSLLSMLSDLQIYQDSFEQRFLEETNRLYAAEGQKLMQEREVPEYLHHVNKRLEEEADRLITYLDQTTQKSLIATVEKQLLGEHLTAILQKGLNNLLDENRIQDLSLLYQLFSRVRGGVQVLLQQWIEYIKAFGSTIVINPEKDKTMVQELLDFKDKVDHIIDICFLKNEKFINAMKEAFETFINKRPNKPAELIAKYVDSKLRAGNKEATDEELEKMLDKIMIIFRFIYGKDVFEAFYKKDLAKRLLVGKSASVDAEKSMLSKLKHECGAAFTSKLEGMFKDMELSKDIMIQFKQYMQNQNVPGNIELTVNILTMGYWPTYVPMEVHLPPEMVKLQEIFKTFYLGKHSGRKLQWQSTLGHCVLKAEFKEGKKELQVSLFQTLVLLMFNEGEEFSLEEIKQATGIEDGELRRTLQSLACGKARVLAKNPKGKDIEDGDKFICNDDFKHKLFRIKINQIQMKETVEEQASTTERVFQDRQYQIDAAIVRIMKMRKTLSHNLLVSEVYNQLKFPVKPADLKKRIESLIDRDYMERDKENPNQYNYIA
UniProt Q16531: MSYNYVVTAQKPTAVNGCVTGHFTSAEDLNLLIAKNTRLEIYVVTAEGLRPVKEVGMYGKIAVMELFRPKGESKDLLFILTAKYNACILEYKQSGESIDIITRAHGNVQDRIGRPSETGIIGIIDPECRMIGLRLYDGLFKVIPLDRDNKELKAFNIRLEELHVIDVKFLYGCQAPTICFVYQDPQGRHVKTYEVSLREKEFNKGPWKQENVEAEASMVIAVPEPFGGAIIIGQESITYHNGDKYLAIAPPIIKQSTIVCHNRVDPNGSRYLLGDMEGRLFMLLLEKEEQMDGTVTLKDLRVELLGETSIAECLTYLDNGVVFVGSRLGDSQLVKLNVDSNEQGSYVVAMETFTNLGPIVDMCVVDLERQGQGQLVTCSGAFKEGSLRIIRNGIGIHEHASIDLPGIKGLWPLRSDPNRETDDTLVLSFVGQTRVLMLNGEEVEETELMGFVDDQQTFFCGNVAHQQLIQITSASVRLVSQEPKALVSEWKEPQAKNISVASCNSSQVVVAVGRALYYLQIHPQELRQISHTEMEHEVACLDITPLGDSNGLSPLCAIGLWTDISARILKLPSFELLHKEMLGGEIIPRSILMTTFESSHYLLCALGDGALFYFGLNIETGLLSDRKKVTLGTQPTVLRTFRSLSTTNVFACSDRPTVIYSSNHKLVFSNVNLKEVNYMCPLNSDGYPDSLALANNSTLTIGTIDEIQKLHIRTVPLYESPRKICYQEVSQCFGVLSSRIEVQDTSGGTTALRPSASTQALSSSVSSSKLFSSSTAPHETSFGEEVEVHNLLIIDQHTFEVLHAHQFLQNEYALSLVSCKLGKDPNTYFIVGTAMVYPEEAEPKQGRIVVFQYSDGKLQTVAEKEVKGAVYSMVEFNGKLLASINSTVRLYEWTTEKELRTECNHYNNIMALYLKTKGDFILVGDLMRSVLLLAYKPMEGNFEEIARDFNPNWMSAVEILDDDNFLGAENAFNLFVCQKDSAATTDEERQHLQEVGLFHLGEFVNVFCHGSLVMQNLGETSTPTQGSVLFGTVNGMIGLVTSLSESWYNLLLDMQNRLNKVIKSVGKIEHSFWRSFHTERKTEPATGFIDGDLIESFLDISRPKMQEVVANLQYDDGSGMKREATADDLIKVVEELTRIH
UniProt Q13619: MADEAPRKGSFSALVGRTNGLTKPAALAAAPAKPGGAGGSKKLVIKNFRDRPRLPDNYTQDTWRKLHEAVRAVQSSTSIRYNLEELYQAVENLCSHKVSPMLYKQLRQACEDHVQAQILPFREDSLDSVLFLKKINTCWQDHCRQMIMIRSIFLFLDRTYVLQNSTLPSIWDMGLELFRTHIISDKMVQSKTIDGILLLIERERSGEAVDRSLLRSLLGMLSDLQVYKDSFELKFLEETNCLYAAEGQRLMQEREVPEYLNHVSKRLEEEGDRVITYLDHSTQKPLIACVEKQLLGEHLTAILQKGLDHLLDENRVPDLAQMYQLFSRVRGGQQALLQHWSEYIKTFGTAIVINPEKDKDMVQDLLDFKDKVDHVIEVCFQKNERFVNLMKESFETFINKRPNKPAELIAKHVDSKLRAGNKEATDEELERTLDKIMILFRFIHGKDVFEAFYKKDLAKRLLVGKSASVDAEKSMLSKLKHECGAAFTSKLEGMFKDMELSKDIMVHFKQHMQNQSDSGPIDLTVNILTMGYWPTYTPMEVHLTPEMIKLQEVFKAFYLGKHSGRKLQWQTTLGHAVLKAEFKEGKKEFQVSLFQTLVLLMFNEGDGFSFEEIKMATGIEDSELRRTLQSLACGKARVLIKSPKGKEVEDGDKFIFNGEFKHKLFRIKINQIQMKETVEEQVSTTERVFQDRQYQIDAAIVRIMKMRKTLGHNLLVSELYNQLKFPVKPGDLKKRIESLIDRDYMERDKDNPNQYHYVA
UniProt Q86VP6: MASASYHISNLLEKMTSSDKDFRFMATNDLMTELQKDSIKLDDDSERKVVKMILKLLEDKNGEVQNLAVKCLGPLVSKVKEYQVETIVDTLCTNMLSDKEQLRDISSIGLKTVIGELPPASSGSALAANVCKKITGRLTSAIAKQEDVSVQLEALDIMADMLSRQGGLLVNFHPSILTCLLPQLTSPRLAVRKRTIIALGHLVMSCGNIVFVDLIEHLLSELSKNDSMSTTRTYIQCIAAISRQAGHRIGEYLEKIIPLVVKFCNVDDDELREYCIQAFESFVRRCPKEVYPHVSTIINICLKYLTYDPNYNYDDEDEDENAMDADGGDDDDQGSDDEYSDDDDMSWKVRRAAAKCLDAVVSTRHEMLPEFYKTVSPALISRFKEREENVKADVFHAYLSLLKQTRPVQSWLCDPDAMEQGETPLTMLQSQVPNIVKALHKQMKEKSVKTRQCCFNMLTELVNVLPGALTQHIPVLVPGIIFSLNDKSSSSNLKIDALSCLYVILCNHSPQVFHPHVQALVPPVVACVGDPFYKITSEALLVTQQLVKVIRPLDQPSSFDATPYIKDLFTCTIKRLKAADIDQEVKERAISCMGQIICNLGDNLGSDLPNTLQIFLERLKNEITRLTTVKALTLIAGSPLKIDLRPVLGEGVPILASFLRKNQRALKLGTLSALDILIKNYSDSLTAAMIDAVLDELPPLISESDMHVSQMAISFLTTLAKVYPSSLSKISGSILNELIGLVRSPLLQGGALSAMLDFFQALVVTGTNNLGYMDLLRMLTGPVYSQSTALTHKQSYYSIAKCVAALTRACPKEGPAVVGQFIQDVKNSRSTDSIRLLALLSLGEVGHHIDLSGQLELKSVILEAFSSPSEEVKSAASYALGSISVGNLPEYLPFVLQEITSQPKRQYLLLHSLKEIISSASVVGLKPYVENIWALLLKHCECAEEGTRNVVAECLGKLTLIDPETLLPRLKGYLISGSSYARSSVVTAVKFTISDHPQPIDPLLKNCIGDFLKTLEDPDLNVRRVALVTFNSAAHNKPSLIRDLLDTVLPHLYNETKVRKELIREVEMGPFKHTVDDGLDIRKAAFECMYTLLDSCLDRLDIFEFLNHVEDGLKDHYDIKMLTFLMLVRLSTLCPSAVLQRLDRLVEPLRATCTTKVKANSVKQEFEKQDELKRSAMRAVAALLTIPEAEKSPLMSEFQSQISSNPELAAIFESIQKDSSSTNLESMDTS

These are yes or no findings as the source states them, for the method shown. In cells and extracts the contact can be indirect. A yes stands for co-enrichment or nearness to the bait. Other partners may have been found.

This assay addresses HA-tagged CUL4B, wild type (endogenously tagged) (human (endogenous in HeLa Kyoto)) (UniProt Q13620). As to the kind of experiment: affinity purification with mass spectrometry.

Take “DDB1 (endogenous) (from UniProt Q16531 1-1140)”: the binding result is recorded as “binds”.

On to “CUL4A (endogenous) (from UniProt Q13619 1-759)”, for which the binding result is on record as “binds”.

“CAND1 (endogenous) (from UniProt Q86VP6 1-1230)”: the binding entry is reported as “binds”.
